# Experimental data published in PubChem BioAssay AID485314 (National Center for Advancing Translational Sciences (NCATS), 2010).
# Several values for one entry are separate records, joined by “and”; a condition that tells them apart may be missing. Identical values can stand only once. Hit rate of the full screen: of about 340,000 compounds, about 4,500 (1.3%) were called active. Inconclusive results, whose numbers are uncertain, are shown with a selection of clear calls. The call rests on the fitted dose curve; in most records, active means well fitted inhibition curve with a large enough effect; inconclusive means small, poorly fitted or top-dose-only effect, or another doubt; inactive means no such curve, though single readings can be large or run the other way. A potency beside an inconclusive call is a rough fit, not a confirmed value.
# Target: DNA polymerase beta (Homo sapiens) (UniProt P06746)
# Assay: qHTS Assay for Inhibitors of DNA Polymerase Beta
# Settings: Pol beta primer extension/strand displacement, fluorescence kinetic; activity change, negative = inhibition: at 114 µM (top of the series)
# Procedure, shortened: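 Preincubation: enzyme (10 nM) with compound, 15 min, RT. Reaction: substrate added to 50 nM final. Reads: 0 and 10 min. Analysis: normalized, Hill fit.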
# On the % scale 0 is the no-effect control and ±100 the full control effect; potency means the concentration at half of the fitted maximal effect.
Compound,"activity change, negative = inhibition",Potency
OCC(CO)(CO)N=Cc1c(O)ccc2ccccc12,inactive: 22.5%,–
CCn1cc(C(=O)NCc2ccccc2OC)c(=O)c2ccc(C)nc21,–,"inconclusive: 100 µM [inhibitor, single point]"
Cc1nn(-c2ccccc2)c(C)c1S(=O)(=O)O,–,"inconclusive: 8.91 µM [inhibitor, partial curve]"
COc1ccc(OC)c(CNS(=O)(=O)c2c(C(=O)N3CCC(C)CC3)c(C)n(C)c2C)c1,inactive: -12.2%,–
Cc1cc(C)cc(NC(=O)Cn2nnc(C(=O)NCCc3ccccc3)c2N)c1,–,"inconclusive: 316 nM [inhibitor, full curve, poor fit] and inconclusive: 89.1 µM [inhibitor, single point]"
COc1c(Cl)cc(Br)c(OC)c1C(=O)NC(=O)Nc1nc(C)cc(C)n1,–,"inconclusive: 89.1 µM [inhibitor, single point]"
CN(C)S(=O)(=O)N(CC(=O)Nc1ccc(F)c(F)c1)c1ccccc1,–,"inconclusive: 12.6 µM [inhibitor, full curve]"
CC1=C(C(=O)Nc2cccc(C)c2C)C2(CCCCC2)OC1=O,inactive: 45.3%,–
Cc1ccc(-n2nc3cc(C)c(N)cc3n2)cc1,inactive: 46.4%,–
O=C(NC1CCCC1)c1ccc2nc(-c3ccco3)c(-c3ccco3)nc2c1,–,active: 50.1 µM
Cc1ccc(SCC(=O)Nc2ccc(-c3nnc(-c4ccco4)o3)cc2)cc1,–,active: 50.1 µM
CC1CCCC(C)N1CC(O)COCc1ccccc1 (centres undefined),–,"inconclusive: 0.126 µM [inhibitor, full curve, poor fit]"
CC(C)=C1C(=O)NN(c2ccc(F)c(Cl)c2)C1=O,–,"inconclusive: 1.12 µM [inhibitor, partial curve, poor fit]"
Cc1oc2c(C)c(O)ccc2c(=O)c1-c1cnn(-c2ccccc2)c1,–,"inconclusive: 79.4 µM [inhibitor, partial curve]"
CSc1nc2ccccc2nc1N(C)S(=O)(=O)c1ccc(C)cc1,–,"inconclusive: 0.316 µM [inhibitor, full curve]"
COc1ccc(-c2cc3c(=O)n(CC(=O)Nc4ccccc4C(F)(F)F)ccn3n2)cc1OC,–,"inconclusive: 31.6 µM [inhibitor, full curve]"
CN1CCN(S(=O)(=O)c2ccc(NC(=S)NC(=O)c3ccccc3)cc2)CC1,inactive: 1.24%,–
COC(=O)c1ccc(C2CC(=O)Nc3c2c(C)nn3-c2nc(C)cc(C)n2)cc1 (centres undefined),–,"inconclusive: 0.126 µM [inhibitor, full curve, poor fit]"
CCOc1ccc(N2C(=O)c3[nH]nc(-c4ccccc4)c3C2c2ccc(O)c(OC)c2)cc1 (centres undefined),–,"inconclusive: 89.1 µM [inhibitor, single point]"
Cc1nc(N2CCOCC2)c2c(C(=O)N3CCN(c4cc(Cl)ccc4C)CC3)c(C)oc2n1,inactive: -19.7%,–
CCc1ccccc1NC(=S)N(CCCN1CCOCC1)Cc1ccccn1,–,"inconclusive: 3.55 µM [inhibitor, full curve]"
CCc1nnc(NC(=O)CSc2nnc(C)n2-c2ccc(C)cc2)s1,–,"inconclusive: 89.1 µM [inhibitor, single point]"
NS(=O)(=O)OCC(Cc1ccccc1)N1C(=O)c2ccccc2C1=O (centres undefined),inactive: 0.0731%,–

Compound,"activity change, negative = inhibition",Potency
CCOc1cc(C2C3=C(CCCC3=O)Nc3ccc4ncccc4c32)ccc1O (centres undefined),inactive: 40.8%,–
O=C(Nc1ccc(F)cc1)C1CCN(c2nc3ccccc3nc2C(F)(F)F)CC1,inactive: -10.8%,–
CC(C)CC(=O)Nc1ccc(C(=O)NNC(=O)C(c2ccccc2)c2ccccc2)cc1,inactive: 27.7%,–
COc1ccc(-c2noc(CC(=O)N(C)c3ccccc3F)n2)cc1,inactive: 18.1%,–
c1ccc(-n2cc(CN3CCC(N4CCOCC4)CC3)c(-c3ccc4c(c3)OCO4)n2)cc1,–,"inconclusive: 79.4 µM [inhibitor, single point]"
Cc1ccc(C(=O)Nc2ccc(N3CCOCC3)c3nonc23)cc1[N+](=O)[O-],–,"inconclusive: 25.1 µM [inhibitor, full curve, poor fit]"
O=C(CSc1ccc(-c2ccco2)nn1)c1ccc(F)cc1,–,"inconclusive: 28.2 µM [inhibitor, full curve]"
COc1cccc(C(=O)CSc2nccn2C)c1,–,"inconclusive: 39.8 µM [inhibitor, single point]"
Cc1ccc(C(=O)CN(C(=O)c2ccc(Cl)cc2)N2C(=O)c3ccccc3C2=O)cc1,–,"inconclusive: 6.31 µM [inhibitor, full curve]"
COc1ccc(C(=O)/C=C/Nc2ccc(S(=O)(=O)Nc3ncccn3)cc2)cc1,inactive: 15%,–
COc1ccc2cc3cc(C(=O)NCc4cccs4)oc3nc2c1,–,active: 22.4 µM
COc1ccc(Nc2nc(N3CCCC3)c3ccccc3n2)cc1,–,active: 35.5 µM
Cc1ccc(/C=C(\C#N)C(=O)Nc2cccc3ncccc23)o1,–,active: 3.16 µM
COc1ccc(N2C(=O)CCC(C(=O)N3CCN(c4ccccn4)CC3)C2c2ccc(F)cc2)cc1 (centres undefined),–,"inconclusive: 100 µM [inhibitor, single point]"
Cc1cccc(C=Nc2ccc3c(c2)oc2ccccc23)c1O,inactive: -6.9%,–
CCOC(=O)c1ccc(NC(=O)CSCc2ccco2)cc1,–,"inconclusive: 3.98 µM [inhibitor, full curve, poor fit]"
CC(C)CC(=O)Nc1ccc(-c2nnn(CC(=O)NCc3ccco3)n2)cc1,–,"inconclusive: 50.1 µM [inhibitor, partial curve]"
O=C(O)c1cccc(-n2cccc2C=C2C(=O)c3ccccc3C2=O)c1,–,"inconclusive: 17.8 µM [inhibitor, single point]"
COc1cccc(NC(=O)c2cnc(SCC(=O)N3CCOCC3)n(C)c2=O)c1,inactive: 13.1%,–
CNC(=S)N/N=C/c1cn(CCOc2cccc(OC)c2)c2ccccc12,inactive: 4.07%,–
CCCCOC(=O)c1ccc(NC(=O)C(=O)CC(=O)c2ccc(OC)cc2)cc1,–,"inconclusive: 25.1 µM [inhibitor, partial curve]"
CCCn1ncc(/C=N/O)c1C,–,"inconclusive: 0.282 µM [inhibitor, full curve, poor fit]"
CC(=O)Nc1ccc(N2CC(C)(C)C2=O)cc1,–,"inconclusive: 63.1 µM [inhibitor, single point]"

Compound,"activity change, negative = inhibition",Potency
Cc1cc(O)c(NC(=O)c2cc([N+](=O)[O-])ccc2Cl)cc1C,–,"inconclusive: 2.82 µM [inhibitor, partial curve]"
CCN(Cc1ccccc1)C(=O)c1sc2nc3n(c(=O)c2c1C)CCCC3,–,"inconclusive: 89.1 µM [inhibitor, single point]"
COC(=O)/C(=C\Nc1ccc(Cl)cc1Cl)NC(=O)c1ccc(Cl)cc1Cl,–,"inconclusive: 7.94 µM [inhibitor, full curve, poor fit]"
CCCn1c(=O)n(C)c(=O)c2c(SCC(=O)NCc3ccco3)nc(C3CC3)nc21,–,"inconclusive: 10 µM [inhibitor, partial curve]"
CCC(=O)N1c2ccc(S(=O)(=O)CCC(=O)Nc3ccc(Br)c(C)c3)cc2CC1C (centres undefined),–,"inconclusive: 7.08 µM [inhibitor, full curve, poor fit]"
O=C(O)c1ccc(N2C(=O)c3cccc4cccc(c34)C2=O)cc1,inactive: -1.38%,–
COC(=O)c1ccc(NC(=O)C(=O)N2CCN(C(=S)Nc3cccc(C)c3C)CC2)cc1,–,"inconclusive: 50.1 µM [inhibitor, single point]"
O=C(N/N=C/c1ccc([N+](=O)[O-])s1)c1cccc(Br)c1,–,"inconclusive: 14.1 µM [inhibitor, full curve]"
CCc1ccc(-c2cc(C)no2)cc1S(=O)(=O)N1CCN(c2ccccc2OC)CC1,inconclusive: -34.1% [inhibitor],–
Cc1ccccc1NC(=O)c1ccc(Cl)c(S(=O)(=O)N2CCCCCC2)c1,inconclusive: -30.1% [inhibitor],–
CCOC(=O)C1CCN(C(=O)Nc2ccc(OC(F)(F)F)cc2)CC1,–,"inconclusive: 89.1 µM [inhibitor, single point]"
O=C(NCCCc1nc2ccccc2n1Cc1ccc(Cl)cc1Cl)c1ccco1,–,"inconclusive: 17.8 µM [inhibitor, partial curve]"
C=CCn1c(SCC(=O)Nc2nc3ccccc3s2)nc(O)c(CC)c1=O,inconclusive: -62.2% [inhibitor],–
CCOC(=O)c1cc(-c2ccc(OC)cc2)n(CCC(=O)Nc2nc3ccc(OCC)cc3s2)c1C,inactive: -0.37%,–
CCOc1cccc(C2C(C(=O)c3cccs3)=C(O)C(=O)N2Cc2cccnc2)c1 (centres undefined),–,"inconclusive: 17.8 µM [inhibitor, partial curve, poor fit]"
Cc1ccc2cc(CN(Cc3ccc4c(c3)OCO4)Cc3nnnn3Cc3ccco3)c(=O)[nH]c2c1C,–,"inconclusive: 35.5 µM [inhibitor, full curve]"
Cc1cc(Br)ccc1NC(=S)N1CCOCC1,–,"inconclusive: 89.1 µM [inhibitor, single point]"
C=CCn1c(SCc2nc3sc(C(=O)O)c(C)c3c(=O)[nH]2)nnc1-c1ccc(C(C)(C)C)cc1,–,active: 22.4 µM
O=C(O)c1cccc(N2C(=O)c3cc4cccc(Br)c4cc3C2=O)c1,inconclusive: -97% [inhibitor],–
CS(=O)(=O)c1nc(-c2ccccc2)cc(C(F)(F)F)n1,–,"inconclusive: 89.1 µM [inhibitor, single point]"
Oc1ccccc1-c1nnc(-c2ccc(C(F)(F)F)cc2)o1,–,"inconclusive: 2 µM [inhibitor, partial curve, poor fit]"
COc1ccc(C)cc1NC(=O)c1cc2ccccc2cc1OCC(=O)NCc1ccco1,–,"inconclusive: 89.1 µM [inhibitor, single point]"
